{
  "source": "patent US10716778B2",
  "about": "“Use of compounds that are able to increase the serum IGF-1 level for the preparation of a therapeutical composition for treatment of various disease states associated with a reduced IGF-1 serum level in humans and animals” (VEIJLEN N.V., priority 2003, dated 2020)",
  "tested_on": "IGF-1",
  "assay": "IGF-1 levels in poor-growing piglets treated with IAA (Example 7)",
  "format": "in vivo, piglets (Dutch Landrace)",
  "details": "treated group B, total of 5 piglets",
  "from_the_text": "The trial was done in a well-managed farm with 1000 sows of the Dutch Landrace. Although the farm is well run, the technical performance is not optimal. There were latent problems with mortality and with growth rates of the piglets. There are too many poor-growing piglets, without fully understanding the technical or veterinary reason. There is no clear pathology to be seen on the farm.\nThe farmer selected the poor-growing piglets for this weaning period. The piglets were weaned for two days at the start of the trial. There were three groups: the normal well-growing piglets, which served as a control group; the B group with 78 poor growers that are treated with 12.5 mg/kg/LW (Life Weight) IAA; and the X group with 52 poor growers that are not treated.\nBlood samples for IGF-1 measuring were taken from each group at the beginning of the trial and at the end of the trial. Two pens (13 piglets) of the B and X groups were weighed at the beginning and at the end of the trial. The active ingredient IAA was mixed in dextrose. […] The B group received the treatment five days after the first IGF-1 measuring.",
  "data": [
    {"substance": "indole acetic acid [IAA]", "values": [
      {"measurement": "IGF-1 level, 2nd measurement, total", "setting": "after 21 days of treatment", "value": 126.4, "unit": "nmol/L"},
      {"measurement": "IGF-1 level, 1st measurement, total", "setting": "before treatment", "value": 22.8, "unit": "nmol/L"}
    ]}
  ]
}
